According to paper PMC10873197:
No constants are given. Whether binding was seen depends on the method and setting. Binding seen in cells or lysates may run through a third protein. Some results given as binding are weak or reduced against the parent protein; the word gives no strength.

Amino acid sequences for entries named in this document (tags omitted).
UniProt P46937: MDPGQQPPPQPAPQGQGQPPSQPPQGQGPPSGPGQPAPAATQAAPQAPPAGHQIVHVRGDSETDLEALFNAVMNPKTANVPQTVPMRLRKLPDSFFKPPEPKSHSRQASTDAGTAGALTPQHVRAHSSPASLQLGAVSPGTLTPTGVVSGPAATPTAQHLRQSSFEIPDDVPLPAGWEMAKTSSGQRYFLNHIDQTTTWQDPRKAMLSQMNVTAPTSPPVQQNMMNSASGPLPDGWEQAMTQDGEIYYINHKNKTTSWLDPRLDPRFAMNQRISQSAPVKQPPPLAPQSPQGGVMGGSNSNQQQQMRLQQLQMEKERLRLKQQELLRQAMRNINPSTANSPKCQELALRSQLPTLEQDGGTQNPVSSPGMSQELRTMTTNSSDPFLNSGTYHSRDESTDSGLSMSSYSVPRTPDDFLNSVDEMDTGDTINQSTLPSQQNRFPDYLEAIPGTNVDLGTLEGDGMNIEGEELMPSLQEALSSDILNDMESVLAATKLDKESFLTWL
UniProt P10244: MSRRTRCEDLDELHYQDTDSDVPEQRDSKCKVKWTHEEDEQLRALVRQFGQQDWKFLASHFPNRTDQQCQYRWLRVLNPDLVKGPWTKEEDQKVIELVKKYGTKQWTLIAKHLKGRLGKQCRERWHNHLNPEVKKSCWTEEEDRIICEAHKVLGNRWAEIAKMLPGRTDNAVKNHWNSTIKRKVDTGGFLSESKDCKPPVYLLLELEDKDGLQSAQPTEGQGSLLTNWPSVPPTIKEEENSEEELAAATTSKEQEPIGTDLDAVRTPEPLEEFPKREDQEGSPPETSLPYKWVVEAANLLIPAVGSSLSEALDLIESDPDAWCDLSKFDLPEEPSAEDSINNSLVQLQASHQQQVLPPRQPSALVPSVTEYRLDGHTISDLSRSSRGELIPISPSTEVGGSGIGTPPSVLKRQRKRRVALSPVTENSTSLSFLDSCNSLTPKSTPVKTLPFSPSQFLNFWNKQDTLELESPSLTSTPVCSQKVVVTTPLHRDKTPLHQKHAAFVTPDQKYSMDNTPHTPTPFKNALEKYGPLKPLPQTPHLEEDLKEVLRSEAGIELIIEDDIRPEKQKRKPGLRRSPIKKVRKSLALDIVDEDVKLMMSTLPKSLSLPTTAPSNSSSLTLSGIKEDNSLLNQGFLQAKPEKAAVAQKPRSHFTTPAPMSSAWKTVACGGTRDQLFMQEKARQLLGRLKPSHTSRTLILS

Molecular target: Flag-tagged YAP (UniProt P46937)
Assay: co-IP; HeLa cells transfected with pCDNA-HA-BMYB, pCDNA-FLAG-YAP and pCDNA-MY-COMP or empty vector (the text says doxycycline-induced MY-COMP); FLAG antibody on protein G dynabeads, 1 mg whole cell lysate in TNN buffer, five washes; bound HA-B-MYB detected by immunoblotting

- binding: binds
Substance: HA-tagged B-MYB (from UniProt P10244 1-700)
